Library screen at single concentrations

Sequences of proteins named here, by UniProt entry; tags and fusion partners are left off. Residues count along the entry.
UniProt A4I591, 1-473: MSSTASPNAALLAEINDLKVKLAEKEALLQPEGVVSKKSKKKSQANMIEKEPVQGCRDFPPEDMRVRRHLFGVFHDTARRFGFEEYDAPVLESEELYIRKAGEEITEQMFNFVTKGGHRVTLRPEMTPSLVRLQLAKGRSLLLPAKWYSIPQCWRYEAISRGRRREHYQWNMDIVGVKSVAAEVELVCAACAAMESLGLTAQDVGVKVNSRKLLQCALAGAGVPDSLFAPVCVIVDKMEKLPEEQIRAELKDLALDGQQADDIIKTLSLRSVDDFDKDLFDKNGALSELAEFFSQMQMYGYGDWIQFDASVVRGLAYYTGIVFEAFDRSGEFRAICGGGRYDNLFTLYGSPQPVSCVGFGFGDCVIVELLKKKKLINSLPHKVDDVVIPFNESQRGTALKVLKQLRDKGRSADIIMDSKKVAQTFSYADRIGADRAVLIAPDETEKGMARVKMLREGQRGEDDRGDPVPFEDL
UniProt P9WFT3, whole entry: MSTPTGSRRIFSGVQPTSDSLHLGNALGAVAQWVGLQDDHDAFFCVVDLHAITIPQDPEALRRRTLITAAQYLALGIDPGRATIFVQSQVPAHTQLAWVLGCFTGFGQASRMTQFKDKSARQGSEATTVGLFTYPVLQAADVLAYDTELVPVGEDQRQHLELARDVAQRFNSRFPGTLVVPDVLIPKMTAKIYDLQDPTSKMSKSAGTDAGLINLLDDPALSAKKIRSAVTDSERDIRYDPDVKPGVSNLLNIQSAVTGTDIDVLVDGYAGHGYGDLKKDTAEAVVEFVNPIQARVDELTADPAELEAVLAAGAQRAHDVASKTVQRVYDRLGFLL
UniProt P9WNZ1, whole entry: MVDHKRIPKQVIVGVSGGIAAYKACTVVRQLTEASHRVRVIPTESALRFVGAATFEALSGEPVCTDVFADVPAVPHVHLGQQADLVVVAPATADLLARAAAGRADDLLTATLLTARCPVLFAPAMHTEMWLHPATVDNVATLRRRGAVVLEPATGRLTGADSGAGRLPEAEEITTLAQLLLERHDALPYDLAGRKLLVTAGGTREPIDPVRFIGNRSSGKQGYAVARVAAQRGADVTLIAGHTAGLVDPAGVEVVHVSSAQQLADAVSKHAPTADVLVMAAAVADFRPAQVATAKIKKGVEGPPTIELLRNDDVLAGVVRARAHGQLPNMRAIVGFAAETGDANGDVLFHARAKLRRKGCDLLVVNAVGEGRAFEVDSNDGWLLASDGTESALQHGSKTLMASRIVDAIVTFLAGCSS

From ChEMBL document CHEMBL3988442, “University of Dundee, Small-Polar-MMV Screening Library” (2021).

LiHisRS: 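Histidine-tRNA ligase, Leishmania infantum (UniProt A4I591). Enzyme assay of histidyl-tRNA synthetase; the read-out is not stated. Concentration: 30 µM. The record gives no direction; compounds that gave an IC50 in retests scored well above the rest, so higher reads as stronger inhibition. The assay is labelled LdHisRS but filed under L. infantum. Of about 69,000 compounds tested this way, about 410 (0.6%) reached 50% or more in at least one test.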
MtTrpRS: 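Enzyme assay of tryptophanyl-tRNA synthetase; the read-out is not stated. Target: Tryptophan-tRNA ligase, Mycobacterium tuberculosis (UniProt P9WFT3). Compounds at 10 µM. Higher most likely means stronger inhibition; the record gives no direction and few retests gave an IC50. Of about 65,000 compounds tested this way, about 64 (0.098%) reached 50% or more in at least one test.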
CoaBC: 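Enzyme assay of CoaBC with a phosphate dye (Biomol Green) read at 650 nm. Target: Coenzyme A biosynthesis protein CoaBC, Mycobacterium tuberculosis (UniProt P9WNZ1). Compounds at 30 µM. Higher reads as stronger inhibition, judged from the few compounds that gave an IC50. Most strong results did not repeat in a second test. Of about 67,000 compounds tested this way, about 40 (0.06%) reached 50% or more in at least one test.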

Results are given as percent effect.
The record does not define 0% and 100%; most values in the screen are far below 50% and negative numbers occur (in some assays of this library far below -100).
This is an unselected part of the compounds tested.
Two or more numbers in one place are separate tests of the same structure; such repeats can differ widely.
A dash means the value is not listed here; it may have been measured.

| # | compound | LiHisRS | MtTrpRS | CoaBC |
|---|---|---|---|---|
| 1 | `COc1ccc(-c2nc(CNCCn3cccn3)cs2)cc1` | 15.09 | -2.308 | 3.158 |
| 2 | `CO[C@H]1CO[C@@]2(CCCN(C(=O)N3CCCC3)C2)C1` | 13.64 | - | -4.198 |
| 3 | `CSc1ccsc1C(=O)N1CCN(CC(C)(C)O)CC1` | 8.108 | -0.8772 | 2.872 |
| 4 | `CCOC(=O)CNC(=O)NCc1cc(C)n(-c2ccccc2OC)c1C` | 31.58 | 3.613 | -1.266 |
| 5 | `COc1cc(CNCc2ccnc(N3CCOCC3)c2)cc(Cl)c1OC` | 16.67 | 3.052 | 7.473 |
| 6 | `CCC(CC)NC(=O)c1nc2n(n1)-c1ccccc1S(=O)(=O)N2` | 19.75 | 9.512 | 1.152 |
| 7 | `Cc1cc(N2CCC(c3nnc(CN(C)C)n3C3CC3)CC2)ccn1` | 2.885 | 4.36 | -5.063 |
| 8 | `Cc1c(NC(C)C(C)C)cccc1C(=O)NCc1nnc(C)n1C` (stereo not given) | -2.632 | 8.195 | 3.34 |
| 9 | `Cc1occc1-c1nnc2n1NC(N)=C(C#N)S2` | 36.84 | -0.8862 | 4.557 |
| 10 | `Cc1cc(C)c(S(=O)(=O)Nc2c(C)nc(N3CCCC3)nc2C)cc1C` | 8.696 | -4.331 | 1.903 |
| 11 | `CC(=O)N1Cc2cnc(C(C)(C)C)nc2C1` | -6.579 | 8.751 | 8.879 |
| 12 | `Cc1cc(C2CCCN2C(=O)CN2CCc3ccccc32)on1` (stereo not given) | 12 | -4.357 | 1.485 |
| 13 | `CC(O)(CNS(=O)(=O)Cc1ccon1)c1ccsc1` (stereo not given) | 5.357 | -0.6461 | 0.578 |
| 14 | `Cc1ccc2cc(CN(C)Cc3ncc[nH]3)c(=O)[nH]c2c1` | 19.17 | 0.5789 | 8.82 |
| 15 | `CC(C)NC(=O)c1ccn(COc2c(Cl)cccc2Cl)n1` | 16.05 | 2.292 | 3.061 |
| 16 | `O=c1c(NCCc2ccc(O)cc2)c(NCc2ccncc2)c1=O` | -15 | 3.254 | 2.658 |
| 17 | `Cc1ccc(C(=O)NS(=O)(=O)c2cc(Br)ccc2C)c(=O)[nH]1` | 9.091 | 1.004 | 3.571 |
| 18 | `Cc1ccc(CNC(=O)Nc2nccs2)cn1` | 9.615 | 0 | -0.4779 |
| 19 | `O=C(CSC1=NS(=O)(=O)c2cc(F)ccc2N1)Nc1ccc(Cl)cc1` | 13.7 | 31.21 | -3.03 |
| 20 | `Cc1cnc(CCNC(=O)NCCOc2ncccc2Cl)s1` | 15.62 | -3.561 | -4.989 |
| 21 | `COC(=O)CSCc1noc(-c2ccc(Cl)cc2)n1` | 15.69 | -3.372 | 5.521 |
| 22 | `CN(C)CCCn1ccnc1C1CCCN(c2cc(N)ncn2)C1` (stereo not given) | 7.619 | -0.5848 | -12.28 |
| 23 | `CCc1noc(C)c1C(=O)N1CCCCC1Cn1cc(C)cn1` (stereo not given) | -4.386 | 27.75 | -2.738 |
| 24 | `Cc1cnc(N2CCC3(CC2)CC3C(=O)NCC2CC2)nc1` (stereo not given) | 7.895 | 23.62 | 7.128 |
| 25 | `Cc1ccc(OCCN2CCC(c3ccnn3CCO)CC2)cc1` | 6.14 | -1.591 | 0.9126 |
| 26 | `COc1ccc(S(=O)(=O)N[C@H]2CN(C(C)=O)C[C@@H]2C2CC2)cc1C` | 3.279 | -0.122 | 4.904 |
| 27 | `COc1ccc(C)cc1CC(=O)NC1(C#N)CCOCC1` | 10.71 | 3.087 | 6.127 |
| 28 | `O=C(NCC(CO)Cc1ccc(Cl)cc1)c1ccncc1Cl` (stereo not given) | 2.151 | -1.917 | 1.459 |
| 29 | `O=C(c1ccoc1)N1CCc2c(COCc3ccncc3)cncc2C1` | 0 | 3.89 | - |
| 30 | `CC(C)(C)NCC(=O)N1CCCC(n2ccnc2)C1` (stereo not given) | 13.7 | -4.681 | 3.926 |
| 31 | `O=C(O)[C@]12CN(CC3CCC3)C[C@H]1CN(c1cnccn1)C2` | 1.613 | -4.224 | -0.1209 |
| 32 | `Cc1ccc(C(=O)NC2CCN(C)CC2)cc1N(C)S(C)(=O)=O` | 6.202 | 4.023 | 2.826 |
| 33 | `Cc1cc(C(C)NC(=O)c2c[nH]c(=O)c(Cl)c2)c(C)o1` (stereo not given) | 29.58 | 4.339 | - |
| 34 | `Cc1ccc(C(=O)N2CCC3(CC2)C(=O)NCCN3C)cc1O` | 8.197 | 1.127 | 0.6494 |
| 35 | `CC(C)(C)c1n[nH]c(C2CN(C(=O)c3cnc[nH]3)CCO2)n1` (stereo not given) | 6.849 | -7.294 | 1.713 |
| 36 | `CCOC(=O)[C@@H]1[C@@H](c2ccccc2)CN2CCN(C(=O)N(C)C)C[C@H]12` | -4.082 | - | 0.2421 |
| 37 | `O=C(c1cnccn1)N1CCN(Cc2cscn2)CC1` | 16.51 | -3.87 | 3.861 |
| 38 | `CC(C)Cn1cnnc1C1CCCN1C(=O)c1cc2ccccn2c1` (stereo not given) | 7.042 | 2.457 | -5.034 |
| 39 | `COc1cccc(CC2(C(=O)O)CCN(c3ccc(Cl)cn3)CC2)c1` | 17.74 | -2.2 | 2.583 |
| 40 | `Clc1ccc2cccnc2c1CN1CCn2c(nnc2C2CC2)C1` | 24 | 6.321 | 4.39 |
| 41 | `Cc1cccc(-c2noc(CN3CCCC3Cn3cncn3)n2)c1` (stereo not given) | 6.897 | -6.257 | -0.2611 |
| 42 | `CC(=O)NCCc1ccc(S(=O)(=O)N(C)C(C)CC(C)C)s1` (stereo not given) | 3.03 | -1.939 | -15.58 |
| 43 | `Cc1nc(C)n(CC2CCCN2CCOc2ccc(F)cc2)n1` (stereo not given) | 5.085 | -8.711 | 4.462 |
| 44 | `Cc1cccc(CN2C(=O)CO[C@@H]3CN(Cc4nccn4C)C[C@H]32)c1` | 17.31 | -0.5629 | 10.56 |
| 45 | `Cn1c(CN2CCCC(N3CCCCCC3)C2)cc(=O)n(C)c1=O` (stereo not given) | 21.43 | 1.651 | 5.434 |
| 46 | `COc1cccc(NC(=O)NCC(C)(O)CCSC)c1OC` (stereo not given) | 15.65 | 1.748 | 7.4 |
| 47 | `NC(=O)c1cc(C2CCCN(CCOCC(F)(F)F)C2)n[nH]1` (stereo not given) | 27.66 | 2.004 | 3.368 |
| 48 | `CCCS(=O)(=O)NCC(O)c1c(Cl)cccc1Cl` (stereo not given) | 19.1 | -2.832 | -3.608 & 21.61 |
| 49 | `CS(=O)(=O)CCOCCNc1ccc(C#N)cc1F` | 17.5 | -3.302 | - |
| 50 | `CC(C)c1cc(C2CCN(C(=O)Cn3cnc4ccccc43)CC2)[nH]n1` | 11.67 | 0.3564 | -1.05 |
| 51 | `Cc1ccc(CN(C)C(=O)c2scnc2C)cc1` | 8.929 | 2.574 | 5.957 |
| 52 | `CCn1cc(NC(=O)NCc2ccc3c(c2)OCCO3)cn1` | 21.88 | 1.247 | -3.426 |
| 53 | `CCOCCN1CCN(Cc2coc(-c3cccc(F)c3)n2)CC1` | 12.17 | -9.445 | 5.806 |
| 54 | `Cc1ccnc(C2CN(c3ncccn3)C2)n1` | 7.246 | -0.1382 | -0.2628 |
| 55 | `NCc1cnn(-c2ccccc2C(=O)NCc2ccncc2)c1` | 2.778 | 4.933 | -1.389 |
| 56 | `CN1CCOC(CNC(=O)Cc2coc(-c3ccccc3)n2)C1` (stereo not given) | 10.71 | -7.182 | 10.09 |
| 57 | `CC(C)(C)c1c[nH]c([C@@H]2COCCN2C2CCNCC2)n1` | 22.97 | 2.656 | -0.2208 |
| 58 | `NC(=O)CN1CCCC(c2ccnc(Nc3ncccn3)c2)C1` (stereo not given) | -4.225 | 15.44 | 0 |
| 59 | `CN1CCCc2sc(C(=O)NC3CC3)nc21` | 28.07 | 3.466 | 3.704 |

Some entries from above, unchanged:

For Cc1cccc(-c2noc(CN3CCCC3Cn3cncn3)n2)c1 (stereo not given) the result was LiHisRS: 6.897%; MtTrpRS: -6.257%; CoaBC: -0.2611%.
For Cc1cc(C2CCCN2C(=O)CN2CCc3ccccc32)on1 (stereo not given) the result was LiHisRS: 12%; MtTrpRS: -4.357%; CoaBC: 1.485%.
For CCC(CC)NC(=O)c1nc2n(n1)-c1ccccc1S(=O)(=O)N2 the result was LiHisRS: 19.75%; MtTrpRS: 9.512%; CoaBC: 1.152%.
For CCOC(=O)CNC(=O)NCc1cc(C)n(-c2ccccc2OC)c1C the result was LiHisRS: 31.58%; MtTrpRS: 3.613%; CoaBC: -1.266%.
For Cc1cnc(CCNC(=O)NCCOc2ncccc2Cl)s1 the result was LiHisRS: 15.62%; MtTrpRS: -3.561%; CoaBC: -4.989%.